Record: PubChem BioAssay AID652272 (Drosophila RNAi Screening Center, 2013)

Screen: 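Finding fly genes that regulate Hedgehog signal transduction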 (primary screen)
Cells: Drosophila clone 8 (Cl8) cells
Reagents: long dsRNA against Drosophila genes
Detection: 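Plate reader light from a firefly reporter under a ptc promoter fragment that responds to Hedgehog, with Renilla light as transfection reference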
Direction: firefly Hh reporter signal: higher = more ptc reporter light; Renilla reference signal: higher = more Renilla control light
Call rule: 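Hit when the z-score averaged over two replicates is under -2 or over +3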
Meaning of the calls: active = hit: reporter lowered or raised; inactive = not a hit
The screen tested about 21,000 reagents; this is a random part of those that have a named target and a result. In the full data, 503 (2.4%) were called active. 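Raw plate light values, not normalised; calls rest on replicate z-scores that were not deposited; hits include reporter decreases as well as increases.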 Names joined by + are all predicted targets of the reagent. Not stated in the record: the amount of reagent, the time to read-out.

no.	gene	amplicon	firefly Hh reporter signal, replicate 1	firefly Hh reporter signal, replicate 2	firefly Hh reporter signal, replicate 3	Renilla reference signal, replicate 1	Renilla reference signal, replicate 2	Outcome
1	CG15306	DRSC17993	87617	1.76e5		3257	7680	inactive
2	CG15306	DRSC18240	1.49e5	7.57e5	3.73e5	5193	6320	inactive
3	CG12948	DRSC14576	75312	1.17e5		2162	2903	inactive
4	CG14006	DRSC02338	79801	63312		1843	5383	inactive
5	tctn + B9d2	DRSC03160	1.22e5	53520		3082	4688	inactive
6	CSN6 (COP9 signalosome subunit 6)	DRSC16593	5.98e5	1.36e5		27574	3371	inactive
7	CG30259	DRSC04164	1.30e5	79048		3644	6301	inactive
8	CG30259	DRSC04165	93975	78295		2416	7321	inactive
9	Or85a (Odorant receptor 85a)	DRSC16764	96421	1.20e5		4009	3042	inactive
10	KP78a + KP78b	DRSC16721	84608	72616		3122	2043	inactive
11	KP78a + KP78b	DRSC16722	83181	90640		2442	2256	inactive
12	Ccdc85	DRSC00501	57891	30792		906	2859	inactive
13	CG13131	DRSC02227	1.27e5	25334		3088	4205	inactive
14	Zw10 (Zeste-white 10)	DRSC18793	93553	88812		2677	3575	inactive
15	CG2926	DRSC12321	1.14e5	88051		3744	2956	inactive
16	Dera (Deoxyribose-phosphate aldolase)	DRSC07207	1.66e5	1.14e5		7443	4535	inactive
17	ATPsyndelta (ATP synthase, delta subunit)	DRSC18248	35158	1.78e5		1249	5562	inactive
18	Gpo3 (Glycerophosphate oxidase 3)	DRSC01978	83365	54841		2251	5307	inactive
19	Mec2	DRSC20054	1.10e5	78695		2584	1665	inactive
20	Gtpx	DRSC08221	1.63e5	1.33e5		6964	5042	inactive
21	CG9394	DRSC04550	1.40e5	54428		3697	5602	inactive
22	kappaTry	DRSC06146	77410	46994		1952	3712	inactive
23	CG2187	DRSC15425	97882	1.98e5		3810	8336	inactive
24	Imp (IGF-II mRNA-binding protein)	DRSC18857	7.34e5	2.20e5		36497	4311	inactive
25	Imp (IGF-II mRNA-binding protein)	DRSC18861	5.99e5	1.59e5		32268	3383	inactive
26	Imp (IGF-II mRNA-binding protein)	DRSC20255	82485	74378		1915	1876	inactive
27	Atg4b (Autophagy-related 4b)	DRSC15988	1.51e5	1.31e5		6203	4784	inactive
28	Torsin	DRSC18570	4.91e5	4.81e5	69312	3041	2496	inactive
29	msn (misshapen)	DRSC07990	96304	1.50e5		2615	5897	inactive
30	msn (misshapen)	DRSC08498	81969	43908		2579	3152	inactive
31	dor (deep orange)	DRSC18765	2.14e5	1.23e5		5226	3948	inactive
32	Ir7g (Ionotropic receptor 7g)	DRSC18008	76221	2.62e5		1795	9296	inactive
33	RhoGAP19D (Rho GTPase activating protein at 19D)	DRSC20499	89635	75362		2481	2225	inactive
34	RhoGAP19D (Rho GTPase activating protein at 19D)	DRSC20500	1.13e5	2.66e5		3068	11216	inactive
35	CG8051	DRSC20077	98272	2.00e5		3920	8346	inactive
36	Sfxn1-3 (Sideroflexin 1/3)	DRSC12183	1.23e5	1.29e5		4224	7153	inactive
37	DJ-1alpha	DRSC07005	1.09e5	78724		2581	5244	inactive
38	Cubn (Cubilin)	DRSC18256	73948	78781		2375	1540	inactive
39	Rabex-5 (Rabaptin-5-associated exchange factor for Rab5)	DRSC08628	93088	85837		4872	3510	inactive
40	grau (grauzone)	DRSC04691	69027	61724		1766	5635	inactive
41	CG13965	DRSC02307	73393	58811		1873	6125	inactive
42	CG10237	DRSC02029	1.16e5	93395		4249	3724	inactive
43	CG12116	DRSC17812	85466	2.50e5		2810	9501	inactive
44	CtBP (C-terminal Binding Protein)	DRSC16617	65194	43979		2921	2582	inactive
45	ND-49 (NADH dehydrogenase (ubiquinone) 49 kDa subunit)	DRSC17151	1.00e5	1.63e5		3658	5733	inactive
46	vn (vein)	DRSC11408	40581	37957		3184	2848	inactive
47	CG42582 (retired record)	DRSC20675	5.54e5	2.90e5		31008	6365	inactive
48	CG9717	DRSC16543	1.03e5	99302		2834	2587	inactive
49	dpr6 (defective proboscis extension response 6)	DRSC09005	1.08e5	1.95e5		2876	7097	inactive
50	dpr6 (defective proboscis extension response 6)	DRSC10162	38372	53617	55494	4988	3712	inactive
51	dpr6 (defective proboscis extension response 6)	DRSC10163	6.42e5	85580		3668	3668	inactive
52	CG11112	DRSC06038	84913	53085		2064	4213	inactive
53	vap (vacuolar peduncle)	DRSC20275	1.02e5	87745		2379	1889	inactive
54	Cht6 (Chitinase 6)	DRSC18001	71490	1.37e5		1848	5347	inactive
55	Cht6 (Chitinase 6)	DRSC18002	41336	58864		788	2677	inactive
56	Cht6 (Chitinase 6)	DRSC18253	89845	2.94e5		2571	12018	inactive
57	CG31275	DRSC16919	97072	1.26e5		3287	3408	inactive
